These are yes or no findings as the source states them, for the method shown. For part of these data: Binding seen in cells or lysates may run through a third protein. Some binding calls cover weakened binding; strength is not graded here.
How the values were obtained:
[1] = molecular target: GRP75-2KR, expressed in mouse liver (AAV-GRP75-2KR) (mouse) (UniProt P38647); experiment: co-IP; livers of mice expressing AAV-GRP75-2KR or 2KQ under NCD; endogenous IP3R1 detected
[2] = molecular target: GRP75-2KQ, expressed in mouse liver (AAV-GRP75-2KQ) (mouse) (UniProt P38647); experiment: as above
[3] = molecular target: GRP75, endogenous in mouse liver (mouse (endogenous in liver)) (UniProt P38647); experiment: native gel or EMSA; Blue-native PAGE 4-13% at 4 °C of primary hepatocytes lysed in 2% digitonin, 50 mM Bis-Tris, 50 mM NaCl, pH 7.4; immunoblotting; hepatocytes of GCN5L1 LKO and control mice and of GRP75-2KR and GRP75-2KQ mice

Protein sequences, listed by entry. Tags and fused reporters are not part of them. Lines headed by an entry give the natural chain unless they say otherwise; changes in a name come on top. Chains listed by the source or under a name are the forms on record and can include a tag or linker. Residues count along the entry.
GRP75, endogenous in mouse liver (mouse (endogenous in liver)) (P38647, residues 47-679): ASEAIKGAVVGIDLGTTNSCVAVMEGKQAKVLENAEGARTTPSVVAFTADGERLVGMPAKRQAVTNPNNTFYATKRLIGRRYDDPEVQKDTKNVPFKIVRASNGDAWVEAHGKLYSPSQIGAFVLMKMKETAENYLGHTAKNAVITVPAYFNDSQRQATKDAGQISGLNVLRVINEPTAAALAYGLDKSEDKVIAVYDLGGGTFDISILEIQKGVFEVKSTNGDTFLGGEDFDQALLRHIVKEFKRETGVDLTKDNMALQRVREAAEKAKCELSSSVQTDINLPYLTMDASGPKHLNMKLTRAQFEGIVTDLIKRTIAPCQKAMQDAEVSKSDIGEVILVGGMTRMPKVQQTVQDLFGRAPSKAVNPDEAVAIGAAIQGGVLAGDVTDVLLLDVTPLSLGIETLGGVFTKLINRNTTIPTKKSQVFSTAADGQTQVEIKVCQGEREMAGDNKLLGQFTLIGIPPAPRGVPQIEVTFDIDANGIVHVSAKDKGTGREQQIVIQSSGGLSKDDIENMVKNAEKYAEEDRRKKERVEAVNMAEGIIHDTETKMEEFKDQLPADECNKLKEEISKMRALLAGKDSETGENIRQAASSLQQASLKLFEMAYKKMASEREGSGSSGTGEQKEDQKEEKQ
GRP75-2KR, expressed in mouse liver (AAV-GRP75-2KR) (P38647, form named): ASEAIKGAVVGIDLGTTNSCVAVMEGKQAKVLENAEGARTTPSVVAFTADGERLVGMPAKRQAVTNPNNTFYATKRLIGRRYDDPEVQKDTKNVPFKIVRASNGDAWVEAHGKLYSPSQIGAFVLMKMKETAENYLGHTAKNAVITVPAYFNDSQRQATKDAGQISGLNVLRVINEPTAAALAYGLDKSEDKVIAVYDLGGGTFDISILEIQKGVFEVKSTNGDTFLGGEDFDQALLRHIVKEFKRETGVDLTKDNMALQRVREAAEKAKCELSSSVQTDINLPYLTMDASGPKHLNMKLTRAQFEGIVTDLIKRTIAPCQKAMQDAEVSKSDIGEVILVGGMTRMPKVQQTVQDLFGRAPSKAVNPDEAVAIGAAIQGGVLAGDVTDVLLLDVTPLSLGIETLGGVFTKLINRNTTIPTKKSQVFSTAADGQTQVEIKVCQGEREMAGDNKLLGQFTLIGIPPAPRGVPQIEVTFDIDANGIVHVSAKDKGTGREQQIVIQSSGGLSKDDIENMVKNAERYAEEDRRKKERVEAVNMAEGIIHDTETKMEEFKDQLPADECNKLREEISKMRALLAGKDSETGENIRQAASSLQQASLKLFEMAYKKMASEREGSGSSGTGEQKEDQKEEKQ
GRP75-2KQ, expressed in mouse liver (AAV-GRP75-2KQ) (P38647, form named): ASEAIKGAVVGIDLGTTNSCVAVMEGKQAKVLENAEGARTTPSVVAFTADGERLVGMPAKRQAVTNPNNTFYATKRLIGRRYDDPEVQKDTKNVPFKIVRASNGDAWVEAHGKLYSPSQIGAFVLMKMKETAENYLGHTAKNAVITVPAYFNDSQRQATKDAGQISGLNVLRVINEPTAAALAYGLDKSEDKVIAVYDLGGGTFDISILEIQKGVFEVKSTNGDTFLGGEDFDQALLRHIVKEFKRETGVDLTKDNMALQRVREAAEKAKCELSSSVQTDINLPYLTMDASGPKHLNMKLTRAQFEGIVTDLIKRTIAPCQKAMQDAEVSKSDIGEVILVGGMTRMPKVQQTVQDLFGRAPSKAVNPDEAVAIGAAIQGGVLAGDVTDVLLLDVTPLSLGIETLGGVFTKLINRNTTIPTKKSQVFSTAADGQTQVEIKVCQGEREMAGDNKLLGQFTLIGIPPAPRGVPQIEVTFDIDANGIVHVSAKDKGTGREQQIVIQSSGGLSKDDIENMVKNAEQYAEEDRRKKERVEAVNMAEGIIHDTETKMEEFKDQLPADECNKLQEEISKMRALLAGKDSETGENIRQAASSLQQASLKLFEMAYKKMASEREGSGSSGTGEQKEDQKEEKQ
UniProt P11881: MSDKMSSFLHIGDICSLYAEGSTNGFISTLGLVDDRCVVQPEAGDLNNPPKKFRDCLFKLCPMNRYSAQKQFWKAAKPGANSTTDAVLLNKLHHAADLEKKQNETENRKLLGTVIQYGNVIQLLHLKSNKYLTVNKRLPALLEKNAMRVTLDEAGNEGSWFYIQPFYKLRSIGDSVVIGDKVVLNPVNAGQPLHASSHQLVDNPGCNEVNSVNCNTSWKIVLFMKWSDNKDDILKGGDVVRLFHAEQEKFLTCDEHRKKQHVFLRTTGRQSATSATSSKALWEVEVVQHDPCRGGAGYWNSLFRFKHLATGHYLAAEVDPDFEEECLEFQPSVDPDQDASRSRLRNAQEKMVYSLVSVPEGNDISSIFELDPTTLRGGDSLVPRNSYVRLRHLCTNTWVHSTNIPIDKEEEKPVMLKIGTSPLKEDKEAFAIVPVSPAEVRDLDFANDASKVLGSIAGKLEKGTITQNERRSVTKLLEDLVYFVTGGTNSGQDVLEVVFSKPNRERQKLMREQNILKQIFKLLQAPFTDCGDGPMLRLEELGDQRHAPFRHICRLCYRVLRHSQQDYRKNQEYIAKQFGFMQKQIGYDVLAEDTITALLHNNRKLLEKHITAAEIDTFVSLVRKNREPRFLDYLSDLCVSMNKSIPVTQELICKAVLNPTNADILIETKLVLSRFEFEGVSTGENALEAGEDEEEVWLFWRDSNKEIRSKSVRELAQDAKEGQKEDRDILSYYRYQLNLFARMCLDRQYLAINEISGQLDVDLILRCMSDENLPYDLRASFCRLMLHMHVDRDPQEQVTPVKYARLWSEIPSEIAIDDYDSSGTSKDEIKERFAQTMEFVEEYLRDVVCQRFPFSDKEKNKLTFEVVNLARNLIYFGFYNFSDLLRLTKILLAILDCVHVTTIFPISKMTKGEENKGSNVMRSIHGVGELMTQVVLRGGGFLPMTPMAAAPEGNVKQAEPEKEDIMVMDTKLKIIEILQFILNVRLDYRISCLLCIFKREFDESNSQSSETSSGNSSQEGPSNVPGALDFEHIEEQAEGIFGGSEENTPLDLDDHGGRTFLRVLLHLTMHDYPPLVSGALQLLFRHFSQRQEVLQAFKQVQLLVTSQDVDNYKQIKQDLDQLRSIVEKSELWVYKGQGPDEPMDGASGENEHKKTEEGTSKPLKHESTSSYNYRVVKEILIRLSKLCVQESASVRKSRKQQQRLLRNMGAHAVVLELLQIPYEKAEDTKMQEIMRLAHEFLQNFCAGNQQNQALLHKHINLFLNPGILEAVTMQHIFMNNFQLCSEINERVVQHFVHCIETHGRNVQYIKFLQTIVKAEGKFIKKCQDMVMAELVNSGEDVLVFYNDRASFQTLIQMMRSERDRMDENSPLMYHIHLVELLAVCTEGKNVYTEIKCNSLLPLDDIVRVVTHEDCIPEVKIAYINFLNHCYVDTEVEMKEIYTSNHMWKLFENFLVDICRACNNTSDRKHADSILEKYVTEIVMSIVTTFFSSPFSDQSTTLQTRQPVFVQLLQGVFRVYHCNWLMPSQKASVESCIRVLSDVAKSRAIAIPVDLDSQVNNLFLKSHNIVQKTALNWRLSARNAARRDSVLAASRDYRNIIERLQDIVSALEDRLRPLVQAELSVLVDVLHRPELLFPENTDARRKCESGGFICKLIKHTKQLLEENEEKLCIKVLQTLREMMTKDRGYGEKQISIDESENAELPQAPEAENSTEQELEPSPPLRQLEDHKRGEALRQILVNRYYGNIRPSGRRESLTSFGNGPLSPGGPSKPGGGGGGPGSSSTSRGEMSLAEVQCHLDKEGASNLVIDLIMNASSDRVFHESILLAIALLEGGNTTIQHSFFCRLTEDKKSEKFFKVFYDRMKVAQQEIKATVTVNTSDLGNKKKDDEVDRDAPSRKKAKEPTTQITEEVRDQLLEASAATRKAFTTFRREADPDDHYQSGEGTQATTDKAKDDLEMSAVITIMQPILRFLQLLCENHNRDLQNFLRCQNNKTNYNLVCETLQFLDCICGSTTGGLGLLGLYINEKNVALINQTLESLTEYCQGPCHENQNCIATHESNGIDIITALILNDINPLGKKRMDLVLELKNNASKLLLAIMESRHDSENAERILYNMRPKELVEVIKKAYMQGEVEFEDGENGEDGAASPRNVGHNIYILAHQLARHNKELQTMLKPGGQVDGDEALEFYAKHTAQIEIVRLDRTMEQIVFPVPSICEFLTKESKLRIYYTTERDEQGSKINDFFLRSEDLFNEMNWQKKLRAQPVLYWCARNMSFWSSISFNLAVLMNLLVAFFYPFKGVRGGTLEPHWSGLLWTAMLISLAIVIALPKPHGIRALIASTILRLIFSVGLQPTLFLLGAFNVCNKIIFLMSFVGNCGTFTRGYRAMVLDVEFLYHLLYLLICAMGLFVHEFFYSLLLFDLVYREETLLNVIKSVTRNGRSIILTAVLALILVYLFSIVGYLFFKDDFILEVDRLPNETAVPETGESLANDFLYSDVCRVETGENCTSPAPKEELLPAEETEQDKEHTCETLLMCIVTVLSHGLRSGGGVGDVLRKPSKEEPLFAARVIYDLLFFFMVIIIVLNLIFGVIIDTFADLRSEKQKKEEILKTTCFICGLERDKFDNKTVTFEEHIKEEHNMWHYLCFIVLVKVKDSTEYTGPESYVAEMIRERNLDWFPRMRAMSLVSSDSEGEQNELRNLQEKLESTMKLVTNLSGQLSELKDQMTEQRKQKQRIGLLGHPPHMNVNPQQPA

Measured: binding

IP3R1, endogenous in mouse liver (from UniProt P11881 1-2749) (receptor)
binds: all assays above

Reference: article PMC12697862
